One assay has as its target T1, NLG-1-GFP (C. elegans) (UniProt Q9XTG1).
T1 sequence: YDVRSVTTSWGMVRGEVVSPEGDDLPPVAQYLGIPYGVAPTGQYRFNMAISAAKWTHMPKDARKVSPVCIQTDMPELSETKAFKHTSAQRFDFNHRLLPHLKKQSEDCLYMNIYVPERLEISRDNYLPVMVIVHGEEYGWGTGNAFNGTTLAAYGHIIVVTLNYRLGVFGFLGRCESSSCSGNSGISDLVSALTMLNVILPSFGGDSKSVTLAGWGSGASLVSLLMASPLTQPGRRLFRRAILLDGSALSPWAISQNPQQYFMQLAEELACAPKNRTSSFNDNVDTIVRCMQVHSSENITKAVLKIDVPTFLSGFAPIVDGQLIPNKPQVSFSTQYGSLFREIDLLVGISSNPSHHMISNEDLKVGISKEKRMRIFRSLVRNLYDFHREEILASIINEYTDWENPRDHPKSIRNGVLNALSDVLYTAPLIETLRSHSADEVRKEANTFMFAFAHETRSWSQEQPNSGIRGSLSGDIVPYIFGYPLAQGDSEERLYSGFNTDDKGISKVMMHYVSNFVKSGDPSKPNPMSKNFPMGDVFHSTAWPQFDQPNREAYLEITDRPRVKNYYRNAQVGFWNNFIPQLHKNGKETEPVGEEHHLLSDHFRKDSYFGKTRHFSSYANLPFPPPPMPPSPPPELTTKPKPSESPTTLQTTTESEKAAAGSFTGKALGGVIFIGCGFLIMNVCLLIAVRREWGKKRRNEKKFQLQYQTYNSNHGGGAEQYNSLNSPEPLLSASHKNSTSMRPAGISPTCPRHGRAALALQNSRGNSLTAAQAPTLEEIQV
Description: co-IP; worm lysates of wild type and unc-40(0), lin-2(0) and frm-3(0) null mutants; NLG-1-GFP precipitated with anti-GFP nanobody Trap-A beads; RFP-UNC-49 detected by anti-RFP western blot.

For the next assay, the target named is T2, GST-LIN-2B (C. elegans) (UniProt P54936).
T2 sequence: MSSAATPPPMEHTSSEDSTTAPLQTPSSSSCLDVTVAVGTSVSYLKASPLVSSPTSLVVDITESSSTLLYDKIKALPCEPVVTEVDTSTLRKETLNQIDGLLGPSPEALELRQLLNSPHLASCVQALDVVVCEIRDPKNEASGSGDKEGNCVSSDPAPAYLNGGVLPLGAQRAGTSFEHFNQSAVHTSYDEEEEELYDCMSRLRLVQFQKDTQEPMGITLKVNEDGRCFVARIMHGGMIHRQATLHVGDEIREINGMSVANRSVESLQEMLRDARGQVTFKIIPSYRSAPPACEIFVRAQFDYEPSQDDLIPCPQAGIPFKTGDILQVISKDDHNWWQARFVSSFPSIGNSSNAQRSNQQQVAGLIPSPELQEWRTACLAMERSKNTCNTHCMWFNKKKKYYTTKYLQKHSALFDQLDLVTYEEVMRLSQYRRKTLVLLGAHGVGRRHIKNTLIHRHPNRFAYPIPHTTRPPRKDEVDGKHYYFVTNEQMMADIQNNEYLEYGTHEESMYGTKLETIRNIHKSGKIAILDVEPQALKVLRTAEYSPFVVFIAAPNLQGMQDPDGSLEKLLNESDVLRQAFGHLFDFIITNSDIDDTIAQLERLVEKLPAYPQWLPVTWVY
Description: pull-down; GST fusion from E. coli lysate on glutathione-Sepharose 4B beads, incubated with in vitro translated HA-tagged protein 12 h at 4 °C; five washes in STE (10 mM Tris-Cl pH 8.0, 150 mM NaCl, 1 mM EDTA, 0.1% Tween-20); anti-HA immunoblot; only the target purified. In general terms: A western blot detects proteins with antibodies after separation by electrophoresis.

In the next assay the target is T3, UNC-40-RFP (C. elegans) (UniProt G5EF96).
T3 sequence: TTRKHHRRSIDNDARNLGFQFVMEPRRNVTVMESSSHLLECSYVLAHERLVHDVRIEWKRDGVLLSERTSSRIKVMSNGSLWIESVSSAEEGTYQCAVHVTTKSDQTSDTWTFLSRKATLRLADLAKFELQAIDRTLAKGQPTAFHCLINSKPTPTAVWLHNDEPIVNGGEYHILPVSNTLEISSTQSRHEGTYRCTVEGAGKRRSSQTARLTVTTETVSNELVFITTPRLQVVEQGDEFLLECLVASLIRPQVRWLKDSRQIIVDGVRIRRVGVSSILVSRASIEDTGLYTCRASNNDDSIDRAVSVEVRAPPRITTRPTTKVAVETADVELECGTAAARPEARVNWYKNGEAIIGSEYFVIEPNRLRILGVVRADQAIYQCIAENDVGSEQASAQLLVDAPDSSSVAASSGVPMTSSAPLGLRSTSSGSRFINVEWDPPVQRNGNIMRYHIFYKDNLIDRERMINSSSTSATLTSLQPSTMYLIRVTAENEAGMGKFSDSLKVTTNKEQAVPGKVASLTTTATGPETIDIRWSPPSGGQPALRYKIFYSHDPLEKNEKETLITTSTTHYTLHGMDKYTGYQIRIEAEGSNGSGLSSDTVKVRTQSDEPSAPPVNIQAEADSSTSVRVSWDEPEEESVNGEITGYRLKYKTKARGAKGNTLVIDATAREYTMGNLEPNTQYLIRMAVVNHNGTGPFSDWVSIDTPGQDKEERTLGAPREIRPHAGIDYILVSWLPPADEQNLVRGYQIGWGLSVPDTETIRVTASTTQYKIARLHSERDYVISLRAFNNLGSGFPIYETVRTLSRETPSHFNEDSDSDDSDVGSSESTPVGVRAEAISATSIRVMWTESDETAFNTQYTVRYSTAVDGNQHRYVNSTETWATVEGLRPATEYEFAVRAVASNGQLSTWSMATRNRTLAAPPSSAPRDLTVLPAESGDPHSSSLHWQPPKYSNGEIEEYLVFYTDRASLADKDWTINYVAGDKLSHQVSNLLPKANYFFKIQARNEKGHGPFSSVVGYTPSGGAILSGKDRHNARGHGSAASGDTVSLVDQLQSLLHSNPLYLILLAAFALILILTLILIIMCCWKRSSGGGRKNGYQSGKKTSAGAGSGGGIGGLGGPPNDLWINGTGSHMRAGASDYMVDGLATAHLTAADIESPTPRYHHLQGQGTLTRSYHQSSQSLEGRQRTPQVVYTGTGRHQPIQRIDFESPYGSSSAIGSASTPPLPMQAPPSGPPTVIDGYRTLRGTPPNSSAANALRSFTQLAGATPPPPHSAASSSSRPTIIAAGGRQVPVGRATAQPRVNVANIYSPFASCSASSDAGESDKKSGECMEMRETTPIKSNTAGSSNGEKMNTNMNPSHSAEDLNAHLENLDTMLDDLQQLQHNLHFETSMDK
In words: co-IP; whole worm extracts (2% Triton X-100 lysis, diluted to 0.2%); UNC-40-RFP precipitated with RFP-Trap-A beads overnight at 4 °C; GFP fusions detected by western blot.

Assay [1] has as its target GST-tagged UNC-49B_loop (TM3-TM4 intracellular loop of UNC-49B fused to GST) (C. elegans). Description: pull-down; GST fusion from E. coli lysate on glutathione-Sepharose 4B beads, incubated with in vitro translated HA-tagged protein 12 h at 4 °C; five washes in STE (10 mM Tris-Cl pH 8.0, 150 mM NaCl, 1 mM EDTA, 0.1% Tween-20); anti-HA immunoblot; only the target purified.

These are yes or no findings as the source states them, for the method shown. Binding seen in cells or lysates may run through a third protein. A result given as binding can be weak or reduced; the word gives no strength. For part of these data: Where a sequence is shown, tags or fusion partners need not be part of it.

For the molecule “RFP-UNC-49 (tagRFP-T-tagged GABAA receptor, knock-in unc-49(kr296)) (C. elegans)”, the binding result with NLG-1-GFP (C. elegans) is on record as “binds”.

With “HA-tagged FERM-FA domains of FRM-3 (C. elegans) (domain or fragment)”, the binding entry in the assay with GST-LIN-2B (C. elegans) was “binds”.

“FERM-FA-GFP (FERM-FA domains of FRM-3 fused to GFP) (C. elegans) (domain or fragment)”: the binding entry with UNC-40-RFP (C. elegans) is “binds”.

For the molecule “HA-UNC-49B_TM3-4 intracellular loop (C. elegans) (domain or fragment)”, the binding entry with GST-LIN-2B (C. elegans) was “binds”.

In the case of FRM-3B-GFP full length (C. elegans), the binding entry with UNC-40-RFP (C. elegans) was “binds”.

B1: HA-tagged full-length LIN-2B (protein, UniProt P54936-2 1-620)
chain: T2 sequence
With B1, the binding entry in assay [1] is recorded as “binds”.

These data come from PMC7260190.
